Here are results for two molecules from publication PMC10499876, “Arabidopsis TCP4 transcription factor inhibits high temperature-induced homeotic conversion of ovules”.

Results are given in words; binding and its absence hold for the method and conditions named. Binding can be weak; no strength is given. Tags and fused reporters may be left off the sequences shown.

The target of assay [1] is AG-C (C-terminus of AG) (Arabidopsis). Description: two-hybrid; bait in pDEST32 (DBD), prey in pDEST22 (AD), S. cerevisiae AH109; growth on SD-Leu-Trp-His with 2.5 mM 3-amino-1,2,4-triazole, 10-, 100- and 1,000-fold dilutions.
Assay [2] has as its target SEP3-C (C-terminus of SEP3) (Arabidopsis). The assay is described as above.

B1: TCP18 (yeast two-hybrid prey, activation domain fusion) (protein, UniProt A1YKT1 1-433)
chain: MNNNIFSTTTTINDDYMLFPYNDHYSSQPLLPFSPSSSINDILIHSTSNTSNNHLDHHHQFQQPSPFSHFEFAPDCALLTSFHPENNGHDDNQTIPNDNHHPSLHFPLNNTIVEQPTEPSETINLIEDSQRISTSQDPKMKKAKKPSRTDRHSKIKTAKGTRDRRMRLSLDVAKELFGLQDMLGFDKASKTVEWLLTQAKPEIIKIATTLSHHGCFSSGDESHIRPVLGSMDTSSDLCELASMWTVDDRGSNTNTTETRGNKVDGRSMRGKRKRPEPRTPILKKLSKEERAKARERAKGRTMEKMMMKMKGRSQLVKVVEEDAHDHGEIIKNNNRSQVNRSSFEMTHCEDKIEELCKNDRFAVCNEFIMNKKDHISNESYDLVNYKPNSSFPVINHHRSQGAANSIEQHQFTDLHYSFGAKPRDLMHNYQNMY
B1: the binding entry in assay [1] and in assay [2] was “binds” in each case.

B2: TCP4 (yeast two-hybrid prey, activation domain fusion) (protein, UniProt Q8LPR5 1-420)
chain: MSDDQFHHPPPPSSMRHRSTSDAADGGCGEIVEVQGGHIVRSTGRKDRHSKVCTAKGPRDRRVRLSAHTAIQFYDVQDRLGFDRPSKAVDWLIKKAKTSIDELAELPPWNPADAIRLAAANAKPRRTTAKTQISPSPPPPQQQQQQQQLQFGVGFNGGGAEHPSNNESSFLPPSMDSDSIADTIKSFFPVIGSSTEAPSNHNLMHNYHHQHPPDLLSRTNSQNQDLRLSLQSFPDGPPSLLHHQHHHHTSASASEPTLFYGQSNPLGFDTSSWEQQSSEFGRIQRLVAWNSGGGGGATDTGNGGGFLFAPPTPSTTSFQPVLGQSQQLYSQRGPLQSSYSPMIRAWFDPHHHHQSISTDDLNHHHHLPPPVHQSAIPGIGFASGEFSSGFRIPARFQGQEEEQHDGLTHKPSSASSISRH
Regarding B2, the binding result in assay [1] and in assay [2] was “binds” throughout.
